From article PMC5190079
These are yes or no findings as the source states them, for the method shown. Binding seen in cells or lysates may run through a third protein. Some results given as binding are weak or reduced against the parent protein; the word gives no strength.

Protein sequences, listed by entry. Tags and fused reporters are not part of them. Residues count along the entry.
UniProt Q03405, residues 23-305: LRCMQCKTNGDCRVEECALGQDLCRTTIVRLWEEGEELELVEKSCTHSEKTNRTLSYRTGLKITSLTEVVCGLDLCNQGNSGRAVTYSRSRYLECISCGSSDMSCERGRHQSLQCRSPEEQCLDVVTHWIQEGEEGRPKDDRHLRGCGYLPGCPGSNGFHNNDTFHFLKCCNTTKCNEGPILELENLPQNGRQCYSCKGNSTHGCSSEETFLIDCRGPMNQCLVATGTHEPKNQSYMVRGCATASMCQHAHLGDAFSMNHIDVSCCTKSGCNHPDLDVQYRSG
UniProt P67809: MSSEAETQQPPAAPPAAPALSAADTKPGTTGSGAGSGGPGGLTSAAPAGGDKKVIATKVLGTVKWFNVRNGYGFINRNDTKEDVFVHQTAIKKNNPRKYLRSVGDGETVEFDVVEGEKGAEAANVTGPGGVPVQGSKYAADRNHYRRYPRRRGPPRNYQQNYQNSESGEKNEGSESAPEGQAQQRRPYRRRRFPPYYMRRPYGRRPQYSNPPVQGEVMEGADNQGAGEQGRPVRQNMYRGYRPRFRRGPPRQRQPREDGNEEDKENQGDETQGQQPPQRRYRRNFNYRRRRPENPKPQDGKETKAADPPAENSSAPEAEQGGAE

Legend:
[1] = molecular target: urokinase plasminogen activator receptor (plasminogen activator, urokinase receptor) (human (endogenous in MDA-MB-231)) (UniProt Q03405); test: proximity ligation; DUOLink PLA on FFPE cell block sections: MDA-MB-231 mock control and uPAR-depleted (uPAR RNAi) cells, also BT549 and MCF7 cells; signals counted by confocal microscopy
[2] = molecular target: urokinase plasminogen activator receptor (plasminogen activator, urokinase receptor) (human (endogenous in MDA-MB-231)) (UniProt Q03405); test: co-IP; co-IP of endogenous uPAR from MDA-MB-231 lysate with polyclonal anti-uPAR antibody (AF807), protein A/G PLUS beads; polyclonal goat isotype antibody as negative control; precipitates analysed by Western blot
[3] = molecular target: urokinase plasminogen activator receptor (plasminogen activator, urokinase receptor) (human (endogenous in MDA-MB-231)) (UniProt Q03405); test: proximity ligation; DUOLink PLA on tissue microarray sections of FFPE TNBC tumour specimens; signals counted by confocal microscopy

Row | binding [1] | binding [2] | binding [3] | Molecule
1 | binds | binds | – | Y-box-binding protein 1 (from UniProt P67809 1-324)
2 | binds | binds | binds | cysteine-rich angiogenic inducer 61 (protein, UniProt O00622 25-381) TCPAACHCPLEAPKCAPGVGLVRDGCGCCKVCAKQLNEDCSKTQPCDHTKGLECNFGASSTALKGICRAQSEGRPCEYNSRIYQNGESFQPNCKHQCTCIDGAVGCIPLCPQELSLPNLGCPNPRLVKVTGQCCEEWVCDEDSIKDPMEDQDGLLGKELGFDASEVELTRNNELIAVGKGSSLKRLPVFGMEPRILYNPLQGQKCIVQTTSWSQCSKTCGTGISTRVTNDNPECRLVKETRICEVRPCGQPVYSSLKKGKKCSKTKKSPEPVRFTYAGCLSVKKYRPKYCGSCVDGRCCTPQLTRTVKMRFRCEDGETFSKNVMMIQSCKCNYNCPHANEAAFPFYRLFNDIHKFRD
